# Experimental data: the supplement of paper PMC3334620
# The full ranking holds about 33,000 sequences; the median of “E-score (-0.5 to 0.5)” is about -0.0014, and the highest 2% start at about 0.25. Some of the results follow.
# Molecular target: T1, Cad1 (UniProt P24813)
# T1 sequence: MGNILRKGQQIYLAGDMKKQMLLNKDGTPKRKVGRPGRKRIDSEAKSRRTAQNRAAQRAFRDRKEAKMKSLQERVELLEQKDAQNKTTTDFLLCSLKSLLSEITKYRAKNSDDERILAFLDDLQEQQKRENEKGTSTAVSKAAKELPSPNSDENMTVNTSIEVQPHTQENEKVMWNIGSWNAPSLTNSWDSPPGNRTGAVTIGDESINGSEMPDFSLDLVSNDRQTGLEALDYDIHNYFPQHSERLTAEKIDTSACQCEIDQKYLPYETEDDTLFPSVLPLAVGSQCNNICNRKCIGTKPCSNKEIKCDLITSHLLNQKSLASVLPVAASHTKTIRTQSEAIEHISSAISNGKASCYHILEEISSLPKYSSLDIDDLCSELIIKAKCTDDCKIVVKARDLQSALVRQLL
# Experiment: PBM E-score (8-mer binding enrichment) (E-score (-0.5 to 0.5)); higher = stronger / more preferred TF binding
# Settings: protein concentration: 100 nM; construct: GST-full length
# Summary of the method: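 Universal all-10-mer Agilent arrays, fresh or stripped once, were converted to double-stranded form by primer extension. GST-tagged yeast transcription factors from PURExpress in vitro transcription/translation, full-length or DNA-binding domain only, were applied at about 100-200 nM and detected with fluorescent anti-GST. After masliner normalisation, the Universal PBM Analysis Suite scored each ungapped eight-base word together with its reverse complement by E-score.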
row,Sequence,PBM E-score
1,ACTGCTCT,-0.0467
2,GTGTCAGA,-0.063
3,GACCAATC,0.0744
4,CCCGGGAG,-0.0573
5,GGACGTCC,0.147
6,CCCCAACC,-0.0982
7,CATAAGTC,-0.00869
8,CTACATCC,-0.132
9,CAGTACAC,-0.0523
10,AATAGTGC,0.135
11,CTTACGAA,0.155
12,AGGAACAC,0.134
13,ATGCGACG,-0.0604
14,AGTCATTC,-0.206
15,CACCTAGA,-0.156
16,TACTCGGA,0.0784
17,AACCTACA,0.113
18,GAGGGCAA,0.0132
19,TACTGGCA,-0.207
20,ACAAGATC,-0.162
21,AAGAGGAT,-0.242
22,AAAATTGT,0.167
23,CTATGCAG,0.15
24,GTATGTCA,0.191
25,GAGCAGCC,0.062

row,Sequence,PBM E-score
1,TCTAAACA,-0.00542
2,CCTGCTAA,-0.128
3,GCGCACCA,0.134
4,AGCCGTAA,0.0619
5,ATAAGAGC,0.0891
6,GAAGACCA,-0.0594
7,GAGTAGAA,0.0302
8,CGGAAGGC,-0.258
9,ACGCGGCC,-0.0773
10,ACTCTTCC,-0.115
11,AACACTGG,-0.0124
12,CGATGGAA,0.0409
13,ACAGCCAG,0.0367
14,ATTCATCA,0.132
15,CAGCCCGA,-0.094
16,ACGCAGCG,0.0217
17,AGGTAGTA,0.113
18,GGCGAGAC,-0.103
19,ATTTTGTC,0.121
20,ACGCTAAA,0.0989
21,ACCTTCAT,-0.0561
22,GGCCATCA,-0.0758
23,GATCTGAA,-0.0481
24,CAGTCGAA,-0.137
25,AAGTTATT,0.11

row,Sequence,PBM E-score
1,GATGTCTA,0.0163
2,CCTTTACG,0.114
3,AATGGAAT,0.165
4,CTGAAGCC,-0.0812
5,ATAAAGTG,0.0831
6,CCTAGGAA,-0.0631
7,CAATGTGG,0.0868
8,ACTAGATA,0.0286
9,ATAGTTTC,0.0743
10,CTGACTCA,0.138
11,CAGTACGC,0.00345
12,CGGTTATA,-0.0843
13,GAAGCGTA,-0.0711
14,GCACGGGA,0.00455
15,GACCTTTA,0.0223
16,CTGCCCGC,0.121
17,ACTGAGGC,0.165
18,AATCTATC,0.0112
19,AACTGGAT,0.0915
20,CGTCGGGC,-0.217
21,GAACTAAC,-0.0054
22,CTTATCCC,-0.0437
23,CAGTGCCC,-0.109
24,AATACTCC,-0.123
25,GGTCAGAC,-0.0236

# Look-ups from the list.
# PBM E-score with GACCTTTA is entered as 0.0223
# PBM E-score with AATCTATC is entered as 0.0112
# PBM E-score with CTGCCCGC is entered as 0.121

# Reformatted bar-delimited: entries from further up
row | Sequence | PBM E-score
3 | GACCAATC | 0.0744
4 | CCCGGGAG | -0.0573
5 | GGACGTCC | 0.147

# (cont.)

row,Sequence,PBM E-score
1,ATCCATCA,-0.0223
2,CCTTTCCA,-0.116
3,GCCTCTAA,-0.0482
4,CGATAACC,0.0893
5,CCATTAAG,0.0196
6,AAAACATT,0.072
7,CGGTAGTC,-0.114
8,TCCCACAA,-0.0498
9,GCAATGAC,-0.139
10,AGGATAAT,0.187
11,ATGCAAGA,0.0655
12,GAAGTCTA,-0.198
13,ACCAGGCG,-0.117
14,TGTGCGAA,-0.0794
15,AGCATCGA,0.116
16,AACATCTT,-0.189
17,GACGATCA,-0.108
18,ACGTCGCG,0.0898
19,GTCATAAA,0.0848
20,AAACACGC,0.1
21,CAAGTAGG,-0.12
22,GACCTCTA,-0.177
23,CAACTCCA,-0.137
24,AATTGGAT,0.232
25,GCTTTGGA,0.0958

row,Sequence,PBM E-score
1,AACATCGC,0.0209
2,CGGGACTC,-0.109
3,ATCCCTGG,-0.161
4,ATTAAAAT,0.253
5,CTTATTCA,0.17
6,TAATAAGA,0.137
7,AGAAATAT,0.222
8,CGTCGAGA,0.139
9,AATAACTA,0.168
10,CGGAGTAA,0.109
11,GACGTGGC,-0.177
12,CAGCCTCC,-0.231
13,ATGTTACG,0.111
14,ACTCGCAA,0.0854
15,CATACATG,0.0962
16,AGAGGAAG,-0.119
17,CTCCAAGC,0.0211
18,GGGCGCGA,0.0847
19,GGCCTCAA,-0.0369
20,AGCCCCGG,-0.296
21,CCCTCAGC,-0.088
22,AAATCACG,0.148
23,CCCGCGGC,0.0319
24,AAACCTGG,0.00289
25,CACGAGCA,-0.00827

row,Sequence,PBM E-score
1,CGTGAGAC,0.117
2,GATCAACA,0.131
3,AATCTCGG,0.034
4,TCCGCAGA,0.11
5,ATCCGCGC,0.181
6,CTGCTCCC,-0.0673
7,TCCTTAAA,-0.0154
8,AGTACCCA,-0.126
9,CACCCTCA,-0.0865
10,AAAAGCTA,-0.0331
11,ATAAAGTA,0.157
12,AAGTCTTG,-0.113
13,CGGGGCTA,-0.177
14,CTTTACTC,0.13
15,GGGTTTTA,-0.0872
16,ACGCCCGG,-0.0906
17,GACGCTAC,0.00555
18,ACGGAAAG,-0.0279
19,GATGCTGA,-0.216
20,CGGACGAG,-0.0449
21,AATGAATA,0.157
22,GTACCGCA,0.109
23,CCAACACG,0.0589
24,GCCTGTCC,-0.0216
25,CTTACCAA,0.205

row,Sequence,PBM E-score
1,CTATACCC,-0.0907
2,TGTCACAA,0.235
3,ACTAACCT,0.0575
4,ATGAAGCC,0.064
5,CACCTAGC,-0.248
6,GTGATATA,0.0139
7,ACTGAGTC,0.0353
8,TCTTCACA,-0.00024
9,CGCACAAC,-0.0468
10,ATCTCCGA,0.151
11,ATCCCGGG,0.146
12,CCGAGTAG,0.0935
13,CAGCTGAA,0.0173
14,GGCCGCGA,0.0232
15,AGGAATTG,0.0938
16,ACAACAGT,0.0838
17,AACGGCAT,0.128
18,CAGATGAC,-0.154
19,CTCAGCGC,0.0582
20,GACTTACC,-0.142
21,GGGGGGTA,-0.46
22,AACAATTG,0.0478
